Measurements from the supplement of paper PMC6078165.
The reference is the same well before dosing, and untreated signal decays as well.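 Labels refer to human fibroblasts, largely primary: uterine (C12385, HUF), lung (H6013), bone (Hs27A), adrenal (HADF), skin (WS1), plus mammary HMF and breast cancer-associated Hs343T. Cancer lines are basal-like or mesenchymal-like triple-negative breast cancer. The paper counts as hits responses shifting over 3x the replicate standard deviation. The tissue of the other fibroblasts is not given here.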

Test system: Hs578T
Assay: relative JC-1 red fluorescence (viability) vs pre-drug, coculture with fibroblast (fraction); higher = more viable cancer cells
Method: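 JC-1 labelled TNBC cells cocultured 1:1 (1,500 cells each) with CellTrace Violet stained primary or stromal fibroblasts in 384-well plates in FluoroBrite medium, treated with one of 42 anticancer drugs at 0.1, 1, 10 or 100 uM. JC-1 red fluorescence (mitochondrial integrity in cancer cells only) was read by plate reader every 8 h for 72 h. Values are normalised to each well's pre-drug value. The stock of one drug was tenfold lower, so its dose labels may be too high.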

CC[C@]1(O)C[C@@H]2CN(CCc3c([nH]c4ccccc34)[C@@](C(=O)OC)(c3cc4c(cc3OC)N(C)[C@H]3[C@@](O)(C(=O)OC)[C@H](OC(C)=O)[C@]5(CC)C=CCN6CC[C@]43[C@@H]65)C2)C1 [Vinblastine]
relative JC-1 red fluorescence
Conditions | 8 h | 16 h | 24 h | 32 h | 40 h | 48 h | 56 h | 64 h | 72 h
10 µM | 0.892 | 0.838 | 0.802 | 0.736 | 0.664 | 0.64 | 0.643 | 0.609 | 0.617
100 µM | 0.815 | 0.635 | 0.556 | 0.453 | 0.369 | 0.317 | 0.291 | 0.248 | 0.229

relative JC-1 red fluorescence
Conditions | 8 h | 16 h | 24 h | 32 h | 40 h | 48 h | 56 h | 64 h | 72 h
10 µM, coculture fibroblast: C12385 | 0.7702 | 0.7138 | 0.665 | 0.576 | 0.519 | 0.487 | 0.451 | 0.423 | 0.4087
10 µM, coculture fibroblast: H6013 | 0.8335 | 0.825 | 0.81 | 0.785 | 0.76 | 0.751 | 0.726 | 0.72 | 0.692
10 µM, coculture fibroblast: H6019 | 0.7785 | 0.717 | 0.682 | 0.608 | 0.576 | 0.552 | 0.527 | 0.519 | 0.501
10 µM, coculture fibroblast: H6076 | 0.928 | 0.897 | 0.846 | 0.783 | 0.689 | 0.674 | 0.656 | 0.642 | 0.622
10 µM, coculture fibroblast: H6231 | 0.955 | 0.92 | 0.829 | 0.719 | 0.626 | 0.603 | 0.549 | 0.526 | 0.496
10 µM, coculture fibroblast: HADF | 0.888 | 0.815 | 0.787 | 0.736 | 0.685 | 0.662 | 0.634 | 0.618 | 0.584
10 µM, coculture fibroblast: HCFa | 0.862 | 0.86 | 0.838 | 0.801 | 0.739 | 0.728 | 0.704 | 0.685 | 0.646
10 µM, coculture fibroblast: HCPF | 0.914 | 0.866 | 0.807 | 0.751 | 0.6484 | 0.618 | 0.594 | 0.554 | 0.507
10 µM, coculture fibroblast: HHSteC | 0.893 | 0.901 | 0.866 | 0.786 | 0.701 | 0.657 | 0.617 | 0.577 | 0.542
10 µM, coculture fibroblast: HMF | 0.9358 | 0.926 | 0.867 | 0.805 | 0.704 | 0.673 | 0.647 | 0.613 | 0.588
10 µM, coculture fibroblast: HPFa | 0.8984 | 0.8722 | 0.829 | 0.763 | 0.725 | 0.69 | 0.646 | 0.627 | 0.585
10 µM, coculture fibroblast: HUF | 0.846 | 0.772 | 0.7625 | 0.66 | 0.589 | 0.5546 | 0.511 | 0.492 | 0.479
10 µM, coculture fibroblast: Hs27A | 0.935 | 0.923 | 0.888 | 0.843 | 0.805 | 0.808 | 0.794 | 0.778 | 0.737
10 µM, coculture fibroblast: Hs343T | 0.916 | 0.872 | 0.8138 | 0.777 | 0.6755 | 0.661 | 0.6217 | 0.5972 | 0.577
10 µM, coculture fibroblast: WS1 | 0.7825 | 0.709 | 0.644 | 0.587 | 0.51 | 0.488 | 0.45 | 0.427 | 0.414
100 µM, coculture fibroblast: C12385 | 0.771 | 0.5702 | 0.376 | 0.226 | 0.169 | 0.143 | 0.117 | 0.102 | 0.0885
100 µM, coculture fibroblast: H6013 | 0.778 | 0.425 | 0.303 | 0.258 | 0.228 | 0.2 | 0.173 | 0.156 | 0.126
100 µM, coculture fibroblast: H6019 | 0.7658 | 0.4487 | 0.318 | 0.215 | 0.176 | 0.156 | 0.141 | 0.132 | 0.12
100 µM, coculture fibroblast: H6076 | 0.831 | 0.577 | 0.406 | 0.351 | 0.299 | 0.273 | 0.24 | 0.206 | 0.183
100 µM, coculture fibroblast: H6231 | 0.874 | 0.612 | 0.416 | 0.374 | 0.294 | 0.259 | 0.21 | 0.186 | 0.168
100 µM, coculture fibroblast: HADF | 0.833 | 0.449 | 0.292 | 0.229 | 0.191 | 0.163 | 0.133 | 0.122 | 0.0926
100 µM, coculture fibroblast: HCFa | 0.857 | 0.743 | 0.609 | 0.519 | 0.442 | 0.394 | 0.352 | 0.324 | 0.276
100 µM, coculture fibroblast: HCPF | 0.9263 | 0.712 | 0.455 | 0.374 | 0.296 | 0.268 | 0.253 | 0.201 | 0.176
100 µM, coculture fibroblast: HHSteC | 0.847 | 0.465 | 0.342 | 0.289 | 0.256 | 0.227 | 0.204 | 0.182 | 0.155
100 µM, coculture fibroblast: HMF | 0.91 | 0.666 | 0.431 | 0.3853 | 0.3202 | 0.283 | 0.2476 | 0.213 | 0.189
100 µM, coculture fibroblast: HPFa | 0.836 | 0.854 | 0.687 | 0.528 | 0.458 | 0.412 | 0.368 | 0.342 | 0.295
100 µM, coculture fibroblast: HUF | 0.844 | 0.786 | 0.762 | 0.563 | 0.427 | 0.366 | 0.311 | 0.28 | 0.255
100 µM, coculture fibroblast: Hs27A | 0.949 | 0.854 | 0.404 | 0.269 | 0.218 | 0.198 | 0.165 | 0.15 | 0.109
100 µM, coculture fibroblast: Hs343T | 0.851 | 0.554 | 0.412 | 0.357 | 0.297 | 0.267 | 0.227 | 0.192 | 0.177
100 µM, coculture fibroblast: WS1 | 0.6705 | 0.38937 | 0.25 | 0.155 | 0.112 | 0.0923 | 0.0753 | 0.062 | 0.0495
